Experimental data published in PMC8967837.
These are yes or no findings as the source states them, for the method shown. A result given as binding can be weak or reduced; the word gives no strength. Where a sequence is shown, tags or fusion partners need not be part of it. For part of these data: Binding seen in cells or lysates may run through a third protein.

Amino acid sequences for entries named in this document (tags omitted). A change or cut given only in a name is not applied to a line headed by its entry.
UniProt Q9SW23: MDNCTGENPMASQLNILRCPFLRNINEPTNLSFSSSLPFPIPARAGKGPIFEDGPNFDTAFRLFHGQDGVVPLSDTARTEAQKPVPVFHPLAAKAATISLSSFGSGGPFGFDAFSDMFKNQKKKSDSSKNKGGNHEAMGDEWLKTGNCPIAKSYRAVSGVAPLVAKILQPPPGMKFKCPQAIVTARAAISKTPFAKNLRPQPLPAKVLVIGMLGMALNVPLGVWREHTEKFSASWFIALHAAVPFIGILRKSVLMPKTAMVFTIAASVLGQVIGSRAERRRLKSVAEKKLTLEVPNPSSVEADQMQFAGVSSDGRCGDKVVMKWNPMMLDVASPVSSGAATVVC

Columns and labels:
[1] = target: T1, HopG1 fused to the GAL4 DNA-binding domain (pDEST32::HopG1) (Pseudomonas syringae pv. tomato DC3000) (UniProt Q87W42); assay: two-hybrid; HopG1 as bait (pDEST32, GAL4 DNA-binding domain), AtNHR2B as prey (pDEST22, GAL4 activation domain); yeast MaV203; growth on TDO (SD/-His/-Leu/-Trp) + 15 mM 3-AT, 30 °C, 4 days
T1 sequence: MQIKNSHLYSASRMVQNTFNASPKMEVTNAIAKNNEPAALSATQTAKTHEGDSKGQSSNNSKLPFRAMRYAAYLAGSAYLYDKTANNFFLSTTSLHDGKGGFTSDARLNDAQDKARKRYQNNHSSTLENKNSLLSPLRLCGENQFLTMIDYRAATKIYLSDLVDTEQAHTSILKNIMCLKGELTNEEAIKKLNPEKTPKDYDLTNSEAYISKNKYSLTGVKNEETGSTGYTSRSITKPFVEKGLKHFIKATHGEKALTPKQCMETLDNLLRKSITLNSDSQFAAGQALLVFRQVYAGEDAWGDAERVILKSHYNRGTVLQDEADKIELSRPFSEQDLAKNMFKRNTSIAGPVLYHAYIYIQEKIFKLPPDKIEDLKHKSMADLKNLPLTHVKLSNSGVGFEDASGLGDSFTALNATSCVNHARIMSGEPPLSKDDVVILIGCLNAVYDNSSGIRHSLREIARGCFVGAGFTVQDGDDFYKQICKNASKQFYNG

[2] = target: AtNHR2B-GFP (Arabidopsis thaliana); assay: co-IP; co-expression in N. benthamiana leaves; 1 mg total protein extract with GFP Nanobody/VHH agarose beads (GFP-Trap), 3 h 30 min at 4 °C; washes with TBS 150 mM NaCl once and 500 mM NaCl twice; Western blot with anti-FLAG and anti-GFP
[3] = target: AtNHR2B fused to the N-terminal encoding half of EYFP (nEYFP-AtNHR2B) (Arabidopsis thaliana); assay: split reporter; BiFC with nEYFP and cEYFP halves, transient co-expression in N. benthamiana; laser scanning confocal microscopy, excitation 488 nm, emission 500-535 nm

AtNHR2B fused to the GAL4 activation domain (pDEST22::AtNHR2B) (from UniProt Q9SW23)
binding [1]: binds

B1: HopG1 fused to the FLAG epitope (HopG1-FLAG) (protein, UniProt Q87W42 1-493)
chain: T1 sequence
binding [2]: binds

B2: HopG1 fused to the C-terminal encoding half of EYFP (HopG1-cEYFP) (protein, UniProt Q87W42 1-493)
chain: T1 sequence
binding [3]: binds
